The target of the test is recombinant soluble netrin-1 (R&D systems). The test is described as follows: immunoprecipitation with NP137 on Protein A magnetic beads, then Western blot; recombinant netrin-1 added to netrin-1 KO HepaRG or netrin-1 null Hepa1-6 cells. In general terms: A western blot detects proteins with antibodies after separation by electrophoresis.

These are yes or no findings as the source states them, for the method shown. Binding calls can cover weak binding; strength is not graded here.

B1: NP137 humanized anti-netrin-1 antibody (antibody, V domains shown)
VH: QVQLQQSGPGLVKPSQTLSLTCAISGYTFTSYNMHWVRQATGQGLEWMGAIYPGNGDTSYNQKFKGRLTISKDTSKNQVVLTMTNMDPVDTATYYCARGGTGFAYWGQG
VL: DIQMTQSPSSLSASVGDRVTITCKASQSVSNDVAWYQQKPGQAPRLLIYYASNRYTGIPPRFSGSGYGTDFTLTINNIESEDAAYYFCQQDYSSPWTFGQG
On to B1, for which the binding entry is reported as “binds”.

The values are drawn from patent US20230303676A1.
